From PubChem BioAssay AID504467 (National Center for Advancing Translational Sciences (NCATS), 2011)
Out of some 330,000 compounds screened, about 7,700 (2.3%) were called active. Inconclusive results, whose numbers are uncertain, are shown with a selection of clear calls. Calls come from the whole dose curve; as a rule, active = well fitted inhibition curve with a large enough effect; inconclusive = small, poorly fitted or top-dose-only effect, or effect the other way; inactive = flat fitted curve, though single readings scatter. A potency beside an inconclusive call is a rough fit, not a confirmed value.

Assay: qHTS screen for small molecules that inhibit ELG1-dependent DNA repair in human embryonic kidney (HEK293T) cells expressing luciferase-tagged ELG1; note: nearly all actives have a fitted effect of over 55% in size
Details: HEK293T ELG1-luciferase reporter, luminescence, 16 h, DNA damage induced by 5-fluorouridine; activity change, negative = inhibition: at 46.1 µM (top of the series)
In short: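 Reporter activity after DNA damage by 5-fluorouridine is monitored. Compound-treated cells incubate 16 hr at 37 °C, then ONE-Glo is added for 30 min before luminescence reading.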
% is set by controls: 0 for no effect and ±100 for the full control effect; potency is the fitted concentration of half-maximal effect.

Compound | Potency | activity change, negative = inhibition
CNC(=O)c1ccc(NC(=O)Nc2ccccc2)cc1 | inconclusive: 23.1 µM [activator, single point] | –
CCC(C)NC(=O)CSc1nc(-c2cccs2)cc(C(F)(F)F)n1 (stereo not drawn) | inconclusive: 29.1 µM [inhibitor, single point] | –
Cc1nn(Cc2ccc(C(=O)N3N=C(C(F)F)CC3(O)C(F)F)o2)c(C)c1[N+](=O)[O-] (stereo not drawn) | inconclusive: 20.6 µM [inhibitor, single point] | –
COc1cccc2sc(NNC(=O)C3COc4ccccc4O3)nc12 (stereo not drawn) | inconclusive: 23.1 µM [inhibitor, single point] | –
O=C(Cc1ccc(Cl)cc1)NNC(=O)C1CC=CCC1C(=O)O (stereo not drawn) | – | inactive: -3.58%
Cc1ccccc1C(=O)OCc1nnc(-c2ccc(Cl)cc2)o1 | inconclusive: 18.3 µM [activator, single point] | –
COc1ccc(NC(=O)NC23CC4CC(CC(C4)C2)C3)cc1OC | – | inactive: 7.92%
Cn1c(CO)cnc1SCC(=O)c1ccc(F)cc1 | inconclusive: 16.4 µM [activator, partial curve] | –
COc1ccc(C(=O)NCCC2=CCCCC2)cc1OC1CCN(C(C)C)CC1 | inconclusive: 29.1 µM [activator, single point] | –
CC(C)(C)c1ccc(OCc2ccc(C(=O)Nc3cccnc3)o2)cc1 | inconclusive: 2.91 µM [activator, partial curve] | –
CCc1cc2c(=O)c(-c3nc4ccccc4[nH]3)coc2c(CN2CCCCC2C)c1O (stereo not drawn) | active: 20.6 µM | –
Cc1nc(S(=O)(=O)N(C)c2ccccc2)c(C#N)c(C)c1Cl | active: 23.1 µM | –
O=c1c(Sc2ccccc2)c(C(F)(F)F)[nH]n1-c1ccccc1 | inconclusive: 29.1 µM [inhibitor, single point] | –
COc1cccc(C(=O)Nc2ccc3nc(N4CCN(c5ncccn5)CC4)cc(C)c3c2)c1OC | active: 2.59 µM | –
CCOc1cc(N2CCOCC2)c(OCC)cc1NS(=O)(=O)c1ccc(Cl)s1 | – | inactive: 19.4%
C#CCOCCOCCOCCNc1nc(N2CCN(C(=O)C([C@@H](C)O)n3cc([C@@H](N)CCCCN)nn3)CC2)nc(N2CCN(C(=O)[C@H](CCCCN)n3cc(CN)nn3)CC2)n1 (stereo partly drawn) | inconclusive: 13 µM [activator, partial curve, poor fit] | –
CCOc1ccc(C(=O)NC(=S)Nc2ccccn2)cc1[N+](=O)[O-] | inconclusive: 29.1 µM [activator, single point] | –
S=C(Nc1ccccc1)Nc1ccc(Cl)cc1Cl | – | inactive: 7.87%
CCOC(=O)N1CCC(N2Cc3cccc(C(=O)N4CCN(c5cccc(Cl)c5)CC4)c3C2=O)CC1 | inconclusive: 29.1 µM [inhibitor, single point] | –
O=c1oc2ccccc2c(Nc2ccccc2O)c1[N+](=O)[O-] | – | inactive: 5.36%
Cc1ccc(C(C2C(=O)CC(C)(C)CC2=O)C2C(=O)CC(C)(C)CC2=O)s1 | inconclusive: 32.6 µM [activator, single point] | –
CN=C(Nc1ccc(C)c(C)c1)SC1CC(=O)N(c2ccc(OC)cc2)C1=O (stereo not drawn) | inconclusive: 18.3 µM [inhibitor, single point] | –
O=C(NCc1ccc2c(c1)OCO2)Nc1ccc(Cl)cc1 | inconclusive: 11.6 µM [activator, partial curve] | –

Compound | Potency | activity change, negative = inhibition
O=C(CCS(=O)(=O)c1cccs1)Nc1ccc(C(=O)NCc2ccccc2)cc1 | inconclusive: 32.6 µM [inhibitor, partial curve, poor fit] | –
CN(C)c1ccc(NC(=S)NC(=O)/C=C/c2ccc(Cl)cc2)cc1 | inconclusive: 29.1 µM [activator, single point] | –
COc1ccc(/C=C/C(=O)NC2=NCCS2)cc1OC | inconclusive: 18.3 µM [activator, partial curve] | –
COc1cc(/C=C/C(=O)N2CCc3ccccc3C2)cc(OC)c1OC | inconclusive: 25.9 µM [inhibitor, partial curve, poor fit] | –
CCOC(=O)/C=c1\s/c(=C\c2ccc3c(c2)OCCO3)c(=O)n1CC(=O)NCC1CCCO1 (stereo not drawn) | – | inactive: -8.01%
CC(=O)Nc1sc(C)c(C)c1C(=O)OCC(=O)Nc1cc(S(=O)(=O)N2CCCCC2)ccc1Cl | inconclusive: 16.4 µM [inhibitor, partial curve] | –
N#Cc1ccc(-c2ccc(OCC(O)Cn3nnc4ccccc43)cc2)cc1 (stereo not drawn) | – | inactive: -10.7%
CCN(CC(=O)NCc1ccc(F)cc1)c1ccc(S(C)(=O)=O)cc1[N+](=O)[O-] | – | inactive: 13.8%
Cc1nonc1N1CCN(Cc2cn[nH]c2-c2ccc(F)cc2F)CC1 | inconclusive: 23.1 µM [inhibitor, single point] | –
COc1ccc(CN(C(=O)/C=C/c2ccccc2Cl)C2CCS(=O)(=O)C2)cc1 (stereo not drawn) | – | inactive: 0%
C/C(Cl)=C\Cn1c(NCCc2ccccc2)nc2c1c(=O)n(C)c(=O)n2C | active: 5.17 µM | –
CCS(=O)(=O)N1CCN(c2cc3c(cc2[N+](=O)[O-])n(C)c(=O)n3C)CC1 | – | inactive: -17.2%
CC(=O)c1sc(NC(=O)C2COc3ccccc3O2)nc1C (stereo not drawn) | inconclusive: 0.731 µM [activator, full curve] | –
O=C(O)CCCCNS(=O)(=O)c1ccc(Cl)c(C(F)(F)F)c1 | inconclusive: 1.84 µM [inhibitor, partial curve, poor fit] | –
COc1ccc(C(=O)CCC(=O)N2CCN(c3ccc(C)cc3)C(C)C2)cc1 (stereo not drawn) | – | inactive: -0.501%
Cc1cc(NS(=O)(=O)c2c(C)[nH]c(=O)[nH]c2=O)ccc1Br | – | inactive: 1.43%
O=C(O)CCN1C(=O)CC(N2C(=O)/C(=C/c3ccc(Cl)cc3)SC2=S)C1=O (stereo not drawn) | – | inactive: -1.55%
CCc1cc2c(cc3c(=O)n(CC(=O)N4CCN(C)CC4)ncn32)s1 | inconclusive: 29.1 µM [activator, partial curve, poor fit] | –
O=C(O)c1ccc(Cl)c(S(=O)(=O)N(Cc2ccccc2)c2ccccc2Cl)c1 | – | inactive: -24%
COc1cc2ncnc(NCc3ccccc3Cl)c2cc1OC | inconclusive: 10.3 µM [inhibitor, partial curve] | –
COC(=O)c1ccc(NC(=O)NC2CCCCC2)cc1 | inconclusive: 18.4 µM [activator, partial curve] | –
CC1CCCN(S(=O)(=O)c2ccc(C(=O)Nc3nnc(-c4ccco4)o3)cc2)C1 (stereo not drawn) | inconclusive: 23.1 µM [inhibitor, single point] | –
Cc1nnn(-c2nonc2N)c1C(=O)N/N=C/c1ccccc1O | inconclusive: 2.31 µM [inhibitor, partial curve] | –

15 entries already listed, sorted by molar mass, descending:
Compound | Potency | activity change, negative = inhibition
CC(=O)Nc1sc(C)c(C)c1C(=O)OCC(=O)Nc1cc(S(=O)(=O)N2CCCCC2)ccc1Cl | inconclusive: 16.4 µM [inhibitor, partial curve] | –
CCOC(=O)/C=c1\s/c(=C\c2ccc3c(c2)OCCO3)c(=O)n1CC(=O)NCC1CCCO1 (stereo not drawn) | – | inactive: -8.01%
O=C(O)c1ccc(Cl)c(S(=O)(=O)N(Cc2ccccc2)c2ccccc2Cl)c1 | – | inactive: -24%
O=C(O)CCN1C(=O)CC(N2C(=O)/C(=C/c3ccc(Cl)cc3)SC2=S)C1=O (stereo not drawn) | – | inactive: -1.55%
COc1ccc(CN(C(=O)/C=C/c2ccccc2Cl)C2CCS(=O)(=O)C2)cc1 (stereo not drawn) | – | inactive: 0%
CCN(CC(=O)NCc1ccc(F)cc1)c1ccc(S(C)(=O)=O)cc1[N+](=O)[O-] | – | inactive: 13.8%
C/C(Cl)=C\Cn1c(NCCc2ccccc2)nc2c1c(=O)n(C)c(=O)n2C | active: 5.17 µM | –
CCS(=O)(=O)N1CCN(c2cc3c(cc2[N+](=O)[O-])n(C)c(=O)n3C)CC1 | – | inactive: -17.2%
Cc1cc(NS(=O)(=O)c2c(C)[nH]c(=O)[nH]c2=O)ccc1Br | – | inactive: 1.43%
N#Cc1ccc(-c2ccc(OCC(O)Cn3nnc4ccccc43)cc2)cc1 (stereo not drawn) | – | inactive: -10.7%
Cc1nonc1N1CCN(Cc2cn[nH]c2-c2ccc(F)cc2F)CC1 | inconclusive: 23.1 µM [inhibitor, single point] | –
COc1cc(/C=C/C(=O)N2CCc3ccccc3C2)cc(OC)c1OC | inconclusive: 25.9 µM [inhibitor, partial curve, poor fit] | –
COc1cc2ncnc(NCc3ccccc3Cl)c2cc1OC | inconclusive: 10.3 µM [inhibitor, partial curve] | –
COc1ccc(/C=C/C(=O)NC2=NCCS2)cc1OC | inconclusive: 18.3 µM [activator, partial curve] | –
COC(=O)c1ccc(NC(=O)NC2CCCCC2)cc1 | inconclusive: 18.4 µM [activator, partial curve] | –

(cont.)

Compound | Potency | activity change, negative = inhibition
Cc1nc(C(=O)N(C)C)nn1-c1cc(Cl)ccc1Cl | inconclusive: 6.51 µM [activator, partial curve, poor fit] | –
COc1ccc2nc3ccccc3nc2c1 | inconclusive: 13 µM [activator, partial curve] | –
CCn1c(SCC(=O)c2ccc(OC)cc2)nnc1C1CC1 | inconclusive: 16.4 µM [activator, single point] | –
CCC[n+]1c(C)sc2c3c(ccc21)CCCC3 | inconclusive: 16.4 µM [inhibitor, partial curve, poor fit] | –
O=C(N/N=C/c1ccnc2ccccc12)c1ccccc1O | inconclusive: 20.6 µM [activator, single point] | –
COc1c(OC(C)=O)ccc(/C=C/c2ccc3cccc(OC)c3n2)c1[N+](=O)[O-] | inconclusive: 4.11 µM [activator, partial curve, poor fit] | –
Cn1c(=O)c2ccccc2n(Cc2ccccc2F)c1=O | inconclusive: 13 µM [inhibitor, partial curve] | –
O=C(CCN1C(=O)/C(=C/c2ccc(F)cc2)SC1=S)NC1C=CS(=O)(=O)C1 (stereo not drawn) | – | inactive: -0.723%
CC(C)CC(C)NNC(=O)c1cc2ccccc2[nH]1 (stereo not drawn) | inconclusive: 29.1 µM [activator, single point] | –
COc1cccc(OCCNc2ccc([N+](=O)[O-])cn2)c1 | inconclusive: 20.6 µM [inhibitor, partial curve, poor fit] | –
Cc1ccc(-c2ocnc2C(=O)Nc2nc(C)cs2)cc1 | inconclusive: 23.1 µM [activator, partial curve] | –
COc1ccc(/C=N/NC(=O)Cn2cnc3ccccc3c2=O)cc1 | inconclusive: 29.1 µM [activator, partial curve, poor fit] | –
COc1ccc(OC)c(C(=O)COC(=O)c2[nH]c(C)c(C(C)=O)c2C)c1 | – | inactive: 12.3%
O=C(CN1C(=O)C2C3C=CC(C3)C2C1=O)NCCc1ccccc1 (stereo not drawn) | inconclusive: 32.6 µM [activator, single point] | –
Cc1cccc(OCCOc2ccccc2C=C(C#N)C#N)c1 | inconclusive: 20.6 µM [activator, single point] | –
CCN1CCN(c2oc(/C=C/c3ccccc3)nc2C#N)CC1 | – | inactive: 10.2%
CCCCCCn1c(CN2CCN(Cc3ccccc3)CC2)nc2c1c(=O)n(C)c(=O)n2C | inconclusive: 16.4 µM [inhibitor, single point] | –
Cc1c(Cl)cnc(NC(=O)COC(=O)/C=C/c2ccco2)c1Cl | – | inactive: 15.4%
Cc1ccc(S(=O)(=O)N/N=C/c2ccc(OS(=O)(=O)c3ccc(C)c([N+](=O)[O-])c3)cc2)cc1 | inconclusive: 32.6 µM [inhibitor, partial curve, poor fit] | –
COc1ccc(/C=C2/C(=O)OCc3cc(OC)c(OC)cc32)cc1 | – | inactive: -26.2%
Cc1ccc(C(=O)Nc2c(C(=O)NCc3ccco3)cnn2-c2ccccc2)cc1 | inconclusive: 29.1 µM [inhibitor, single point] | –
COc1ccc(CS(=O)c2nc(C)cc(C)c2S(C)(=O)=O)cc1 (stereo not drawn) | – | inactive: -2.61%
